Source: ChEMBL document CHEMBL3988442, “University of Dundee, Small-Polar-MMV Screening Library” (2021).

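Assay of Toxoplasma gondii numbers, read through their beta-galactosidase reporter with a colour substrate. Concentration: 50 µM. Higher reads as fewer parasites (inferred from which compounds were picked for retests). About 18,000 compounds were tested under these conditions; 0.94% (about 170) showed 50% or more at least once.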

The filed quantity is “Percent Effect” (%).
The controls that fix the scale are not given in the record; negative values are as filed.
The compounds are a random part of those screened.

structure: CCC(C(=O)NCCN1CCC(OC)CC1)N(C)C (stereo not drawn)
percent effect: 1.128

structure: O=C(CCc1ccccn1)NCCn1cccc1
percent effect: 9.124

structure: Cc1ccc(C(=O)N2CCOCC2)cc1-n1cccc1
percent effect: 1.873

structure: CC(=O)Nc1cccc(CSC(C)CCO)c1 (stereo not drawn)
percent effect: -5.619

structure: Cc1ccc(F)c(NC(=O)N2CCOCC2CO)c1 (stereo not drawn)
percent effect: 2.099

structure: CN1CCC(Nc2cc(C#N)c3ccccc3n2)C1=O (stereo not drawn)
percent effect: -20.27

structure: CC(C)[C@H]1CN(Cc2cncn2C)C[C@@H]1NC(=O)CO
percent effect: 3.394

structure: Cc1cnc(C(NS(=O)(=O)c2cccnc2)C2CC2)s1 (stereo not drawn)
percent effect: 15.48

structure: CCc1cc(CN)[nH]n1
percent effect: 12.1

structure: O=C1c2ccccc2C(=O)N1CN1CCCCC1
percent effect: -13.31

structure: NCCc1ccc(F)cn1
percent effect: 2.533

structure: Cc1n[nH]c(C)c1CN1CCC2(CCNCC2)C1
percent effect: -6.14

structure: CC(=O)NCCC1CCCNC1 (stereo not drawn)
percent effect: -0.7454

structure: CC(C)C(C)(C#N)NC(=O)CSc1nncn1C (stereo not drawn)
percent effect: -6.02

structure: C1CNC(CN2CCOCC2)C1 (stereo not drawn)
percent effect: 28.22

structure: CC(C)(C)OC(=O)N[C@H]1CCNC1
percent effect: -5.082

structure: CS(=O)(=O)Nc1ccccc1CNC(=O)c1ccoc1
percent effect: 97.49

structure: Cc1nc2ccc(N)cn2n1
percent effect: -8.866

structure: COCc1cccc(-c2nc(C3CCOC3)no2)n1 (stereo not drawn)
percent effect: -7.742

structure: NC1CCc2nnc(-c3ccccc3)n2C1 (stereo not drawn)
percent effect: -5.158

structure: NCCc1cccc2cc[nH]c12
percent effect: 4.441

structure: CC(=O)N1CCc2cc(C(=O)N(C)C)ccc21
percent effect: 0.04618

structure: c1cn(CC2CCCNC2)nn1 (stereo not drawn)
percent effect: 23.03

structure: Cc1noc(C)c1CC(=O)N1CCN(C)CC1
percent effect: -2.051

structure: Cc1nonc1CC(=O)N[C@@H]1COCC[C@H]1O
percent effect: -1.6

structure: CN(C)C(=O)C(CO)c1ccccc1 (stereo not drawn)
percent effect: 0.9562

structure: Cc1cc(-c2cc(N3CCN(C)CC3)nc(N)n2)[nH]n1
percent effect: -8.474

structure: Cc1ccc(C(=O)N(C)C(C)CN)cc1Cl (stereo not drawn)
percent effect: 11.34

structure: CNC(=O)NC(=O)C(C)OC(=O)c1ccc(CO)cc1 (stereo not drawn)
percent effect: 10.26

structure: CNCc1ccc(Cn2ccnc2)cc1
percent effect: -2.703

structure: Cc1cccc2[nH]cc(CCN)c12
percent effect: 8.593

structure: CN(Cc1cnn(C)c1)C(=O)Cn1cc(Br)ccc1=O
percent effect: -5.01

Some entries from above, unchanged:

Result for CN(C)C(=O)C(CO)c1ccccc1 (stereo not drawn) was 0.9562%.
Result for Cc1nonc1CC(=O)N[C@@H]1COCC[C@H]1O was -1.6%.
Result for CC(=O)N1CCc2cc(C(=O)N(C)C)ccc21 was 0.04618%.
Result for NCCc1cccc2cc[nH]c12 was 4.441%.